# Laboratory results published in the supplement of paper PMC9454738.
# Structures can show the parent of a compound that is named as a salt. ± gives the standard deviation of the averaged measurements. The list shows a part of the results. Single values are uncertain here, since repeats match poorly.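 Test systems: triple-negative MDA-MB-231 breast cancer cells and their brain-metastatic MDA-MB-231BRM derivative, each stably carrying empty vector, full-length GLI1 or truncated tGLI1. Viability after 48 h was read by CellTiter-Blue and expressed against 1% DMSO vehicle. A compound was tGLI1-selective if it lowered viability 20% more in tGLI1 cells than in vector and GLI1 cells.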
# Tests used:
# Assay in all cases: cell viability relative to vehicle (DMSO) control (fraction); higher = more viable cells (less growth inhibition)
# Details in all cases: treatment time 48 h
# [1] = tested on: MDA-MB-231 GLI1
# [2] = tested on: MDA-MB-231 Vector
# [3] = tested on: MDA-MB-231 tGLI1
# [4] = tested on: MDA-MB-231BRM GLI1
# [5] = tested on: MDA-MB-231BRM Vector
# [6] = tested on: MDA-MB-231BRM tGLI1
SMILES,cell viability ([1]; 0.05 µM),cell viability ([1]; 0.5 µM),cell viability ([1]; 5 µM),cell viability ([2]; 0.05 µM),cell viability ([2]; 0.5 µM),cell viability ([2]; 5 µM),cell viability ([3]; 0.05 µM),cell viability ([3]; 0.5 µM),cell viability ([3]; 5 µM),cell viability ([4]; 0.05 µM),cell viability ([4]; 0.5 µM),cell viability ([4]; 5 µM),cell viability ([5]; 0.05 µM),cell viability ([5]; 0.5 µM),cell viability ([5]; 5 µM),cell viability ([6]; 0.05 µM),cell viability ([6]; 0.5 µM),cell viability ([6]; 5 µM)
C[C@]12C=CC(=O)N[C@@H]1CC[C@@H]1[C@@H]2CC[C@]2(C)[C@@H](C(=O)Nc3cc(C(F)(F)F)ccc3C(F)(F)F)CC[C@@H]12 [Dutasteride],1.04,1.05,1.02,0.894,1.12,1.08,1.14,1.03,0.914,1.01,1.01,0.988,1.03,0.987,0.948,1.11,1.02,0.939
Cc1ccc(-c2cc(C(F)(F)F)nn2-c2ccc(S(N)(=O)=O)cc2)cc1 [Celecoxib],1.02,1.13,1.02,1.54,1.03,0.92,1.14,1.07,1.1,1.05,1.05,0.884,1.07,0.956,0.898,1.04,1.01,0.982
CNC(=O)c1ccccc1Sc1ccc2c(/C=C/c3ccccn3)n[nH]c2c1 [Axitinib],1.09 ± 0.18,1.47 ± 0.79,0.811 ± 0.14,1.15 ± 0.42,0.9841 ± 0.005,0.618 ± 0.041,0.89 ± 0.028,1 ± 0.061,0.633 ± 0.14,0.952 ± 0.13,0.889 ± 0.072,0.779 ± 0.061,0.91 ± 0.026,0.91 ± 0.074,0.718 ± 0.059,1.01 ± 0.12,0.907 ± 0.12,0.729 ± 0.15
COc1cc2c(cc1O)CC[C@@H]1[C@@H]2CC[C@]2(C)[C@@H](O)CC[C@@H]12 [2-Methoxyestradiol],0.984,0.508,0.131,1.05,0.195,-0.00976,1.03,0.365,0.00869,1.08,0.908,0.732,1.07,0.992,0.843,1.04,0.99,0.832
CSc1cccc(Nc2ncc3cc(-c4c(Cl)cccc4Cl)c(=O)n(C)c3n2)c1,1.05,0.386,0.0705,1.08,0.368,0.134,1.08,0.459,0.0468,1.01,0.838,0.85,1.13,0.917,0.791,0.946,0.642,0.794
CCc1nc(-c2cccc(C)c2)c(-c2ccnc(NC(=O)c3ccccc3)c2)s1,1.3,1.49,0.899,1.33,1.43,1.23,1.32,1.41,1.21,0.912,0.832,0.746,1.02,0.889,0.708,0.955,0.88,0.695
CC(C)(C)Cn1c(N)nc2ccc(-c3[nH]c(C(C)(C)C)nc3-c3ccc(F)cc3)nc21,1.29,1.2,1.38,1.7,0.828,1.01,0.969,1.07,0.535,0.792,0.566,0.717,0.697,1.09,0.505,0.915,0.689,0.688
O=S(=O)(NCCNC/C=C/c1ccc(Br)cc1)c1cccc2cnccc12,1.44,1.46,1.82,1.88,1.35,1.46,1.19,0.677,1.43,1.08,1.15,0.939,0.738,1.01,0.974,0.986,1.11,0.946
COc1ccc(C(=O)Nc2sc3c(c2C(N)=O)CCCC3)cc1OC,1.21,1.85,1.2,0.754,0.712,0.597,0.69,0.738,0.726,0.508,0.441,0.375,0.516,0.432,0.378,0.685,0.594,0.654
Nc1nc(N)c2nc(-c3cccc(O)c3)cnc2n1,0.413,0.99,0.392,0.798,1.09,0.629,0.986,1.04,0.653,0.973,0.861,0.798,1.01,0.921,0.761,1.03,0.939,0.772
COc1cc([C@@H]2c3cc4c(cc3[C@@H](O[C@@H]3O[C@@H]5CO[C@@H](C)O[C@H]5[C@H](O)[C@H]3O)[C@H]3COC(=O)[C@H]23)OCO4)cc(OC)c1O [Etoposide (VP-16)],0.86,0.682,0.313,0.834,0.711,0.242,0.96,0.741,0.24,1,1.04,0.833,0.916,0.998,1,0.972,1.09,1.07
CNC(=O)c1cc(Oc2ccc(NC(=O)Nc3ccc(Cl)c(C(F)(F)F)c3)cc2)ccn1 [Sorafenib Tosylate],1.05,1.11,0.968,1.15,0.823,0.637,1.05,1.11,0.604,0.923,0.983,0.919,0.943,0.935,0.917,0.948,0.924,0.906
O=c1[nH]cc(F)c(=O)[nH]1 [Adrucil (Fluorouracil)],1.19,1.02,0.877,1.45,1.19,0.708,0.83,1.15,0.832,1.06,1.04,0.994,1.1,1.02,1.05,1.07,1.04,1.07
O=C1Nc2ccc(I)cc2/C1=C/c1cc(Br)c(O)c(Br)c1,0.91,1.14,0.631,1.07,1.25,1.06,0.995,1.21,0.921,0.993,0.906,0.886,1,0.901,0.925,1.04,0.881,0.919

# 3 entries out of the list, arranged by number of heavy atoms, smallest number first:
SMILES,cell viability ([1]; 0.05 µM),cell viability ([1]; 0.5 µM),cell viability ([1]; 5 µM),cell viability ([2]; 0.05 µM),cell viability ([2]; 0.5 µM),cell viability ([2]; 5 µM),cell viability ([3]; 0.05 µM),cell viability ([3]; 0.5 µM),cell viability ([3]; 5 µM),cell viability ([4]; 0.05 µM),cell viability ([4]; 0.5 µM),cell viability ([4]; 5 µM),cell viability ([5]; 0.05 µM),cell viability ([5]; 0.5 µM),cell viability ([5]; 5 µM),cell viability ([6]; 0.05 µM),cell viability ([6]; 0.5 µM),cell viability ([6]; 5 µM)
Nc1nc(N)c2nc(-c3cccc(O)c3)cnc2n1,0.413,0.99,0.392,0.798,1.09,0.629,0.986,1.04,0.653,0.973,0.861,0.798,1.01,0.921,0.761,1.03,0.939,0.772
COc1ccc(C(=O)Nc2sc3c(c2C(N)=O)CCCC3)cc1OC,1.21,1.85,1.2,0.754,0.712,0.597,0.69,0.738,0.726,0.508,0.441,0.375,0.516,0.432,0.378,0.685,0.594,0.654
CC(C)(C)Cn1c(N)nc2ccc(-c3[nH]c(C(C)(C)C)nc3-c3ccc(F)cc3)nc21,1.29,1.2,1.38,1.7,0.828,1.01,0.969,1.07,0.535,0.792,0.566,0.717,0.697,1.09,0.505,0.915,0.689,0.688
